From PubChem BioAssay AID256 (DTP/NCI, 2004)
The list is a part of this screen's results and no random one: it covers a few groups of compounds. Other doses and runs of a compound may be missing. T/C: endpoint of the treated group in % of that of the vehicle group. Some entries give survivors of the animals treated and no T/C: the source files T/C as zero there, which appears to mark a toxic dose or a test without result, not a measured value. Some doses without a T/C left all or most animals alive at the check, yet need not have been tolerated: survival well below the control is almost never listed, so the zero probably covers shortened survival too. Counts of survivors are from the toxicity check (mostly the fifth day) where no day follows; animals may have died later. Schedules are NCI's codes, read here as Q, the interval in days (D) or hours (H), X, the number of doses. Some entries were tested several times; the results are listed from low to high. Signs of the kind (2×) say how often a value occurs here. For survival time, the PubChem record calls one and a half times the control and up active, and a quarter to a half above the control has no call in these data; cut-offs in other NCI protocols can differ. Some entries show no survivor count and are marked so; the dose need not have been tolerated. Some T/C values carry the count of animals alive at the toxicity check (mostly the fifth day); without a count or a note in brackets, all were alive then.

Test system: CD2F1 mice, L1210 leukemia ip, survival T/C
Experiment: NCI In Vivo Anticancer Drug Screen. Data for tumor model L1210 Leukemia (intraperitoneal) in CD2F1 (CDF1) mice
Conditions: higher T/C = longer survival
Summary of the method: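 Transplantable tumor in mice; compound-treated vs vehicle-treated groups. Read-out = treated/control ratio of the measured endpoint.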

[1] = T/C endpoint: mean survival time, dose: 62.5 mg/kg/injection, schedule: Q01DX001 (ip), vehicle: DMSO
[2] = T/C endpoint: mean survival time, dose: 250.0 mg/kg/injection, schedule: Q01DX001 (ip), vehicle: DMSO
[3] = T/C endpoint: mean survival time, dose: 500.0 mg/kg/injection, schedule: Q01DX001 (ip), vehicle: DMSO
[4] = T/C endpoint: mean survival time, dose: 25.0 mg/kg/injection, schedule: Q01DX001 (ip), vehicle: DMSO
[5] = T/C endpoint: mean survival time, dose: 50.0 mg/kg/injection, schedule: Q01DX001 (ip), vehicle: DMSO
[6] = T/C endpoint: mean survival time, dose: 100.0 mg/kg/injection, schedule: Q01DX001 (ip), vehicle: DMSO

O=P(Cl)(Cl)CCCl
T/C (T/C endpoint: mean survival time, dose: 100.0 mg/kg/injection, schedule: Q04DX002 (ip), vehicle: saline): 94 % of control [survivor count not shown]
T/C (T/C endpoint: mean survival time, dose: 200.0 mg/kg/injection, schedule: Q04DX002 (ip), vehicle: saline): 88 % of control [survivor count not shown]

CCC(C)NN(CCCl)CCCl (stereo not drawn)
T/C (T/C endpoint: mean survival time, dose: 25.0 mg/kg/injection, schedule: Q04DX003 (ip), vehicle: saline): 101 % of control [survivor count not shown]
T/C (T/C endpoint: mean survival time, dose: 50.0 mg/kg/injection, schedule: Q04DX003 (ip), vehicle: saline): 110 % of control [survivor count not shown]
T/C (T/C endpoint: mean survival time, dose: 100.0 mg/kg/injection, schedule: Q04DX003 (ip), vehicle: saline): 135 % of control [survivor count not shown]

O=P1(N(CCCl)CCCl)NCC(O)CCO1 (stereo not drawn)
T/C (T/C endpoint: mean survival time, dose: 15.62 mg/kg/injection, schedule: Q01DX001 (ip), vehicle: DMSO): 97 % of control [survivor count not shown]
T/C (T/C endpoint: mean survival time, dose: 31.25 mg/kg/injection, schedule: Q01DX001 (ip), vehicle: DMSO): 109 % of control [survivor count not shown]
T/C [1]: 93 % of control [survivor count not shown]
T/C (T/C endpoint: mean survival time, dose: 125.0 mg/kg/injection, schedule: Q01DX001 (ip), vehicle: DMSO): 101 % of control [survivor count not shown]
T/C [2]: 104 % of control [survivor count not shown]
T/C [3]: 101 % of control [survivor count not shown]

CC(O)CCOP(=O)(N(C)C)N(CCCl)CCCl (stereo not drawn)
T/C [4]: 97 % of control [survivor count not shown]
T/C [5]: 97 % of control [survivor count not shown]
T/C [6]: 106 % of control [survivor count not shown]
T/C (T/C endpoint: mean survival time, dose: 200.0 mg/kg/injection, schedule: Q01DX001 (ip), vehicle: DMSO): 100 % of control [survivor count not shown]

S=C=Nc1ccc(N(CCCl)CCCl)cc1
T/C (T/C endpoint: mean survival time, dose: 100.0 mg/kg/injection, schedule: Q01DX001 (ip), vehicle: Klucel (hydroxypropylcellulose) (HPC)): 100 % of control [survivor count not shown]
T/C (T/C endpoint: mean survival time, dose: 200.0 mg/kg/injection, schedule: Q01DX001 (ip), vehicle: Klucel (hydroxypropylcellulose) (HPC)): 105 % of control [survivor count not shown]
T/C (T/C endpoint: mean survival time, dose: 400.0 mg/kg/injection, schedule: Q01DX001 (ip), vehicle: Klucel (hydroxypropylcellulose) (HPC)): 115 % of control [survivor count not shown]

O=NN(CCCSCCCl)C(=O)NC1CCCCC1
T/C (T/C endpoint: mean survival time, dose: 6.25 mg/kg/injection, schedule: Q01DX001 (ip), vehicle: distilled water + Tween-80): 101 % of control
T/C (T/C endpoint: mean survival time, dose: 12.5 mg/kg/injection, schedule: Q01DX001 (ip), vehicle: distilled water + Tween-80): 104 % of control
T/C (T/C endpoint: mean survival time, dose: 25.0 mg/kg/injection, schedule: Q01DX001 (ip), vehicle: distilled water + Tween-80): 101 % of control
T/C (T/C endpoint: mean survival time, dose: 50.0 mg/kg/injection, schedule: Q01DX001 (ip), vehicle: distilled water + Tween-80): 101 % of control
T/C (T/C endpoint: mean survival time, dose: 100.0 mg/kg/injection, schedule: Q01DX001 (ip), vehicle: distilled water + Tween-80): 118 % of control
T/C (T/C endpoint: mean survival time, dose: 200.0 mg/kg/injection, schedule: Q01DX001 (ip), vehicle: distilled water + Tween-80): 119 % of control

NC1CCCCC1.NP(=O)(O)N(CCCl)CCCl
T/C [4]: 116 [survivor count not shown] and 122 % of control [survivor count not shown]
T/C (T/C endpoint: mean survival time, dose: 25.0 mg/kg/injection, schedule: Q01DX001 (ip), vehicle: other): 106 % of control [survivor count not shown]
T/C (T/C endpoint: mean survival time, dose: 25.0 mg/kg/injection, schedule: Q01DX001 (ip), vehicle: saline): 113 % of control [survivor count not shown]
T/C (T/C endpoint: mean survival time, dose: 25.0 mg/kg/injection, schedule: Q01DX001 (ip), vehicle: water): 122 % of control [survivor count not shown]
T/C (T/C endpoint: mean survival time, dose: 31.25 mg/kg/injection, schedule: Q01DX001 (ip), vehicle: DMSO, evaluated on day 30): 127 and 130 % of control
T/C (T/C endpoint: mean survival time, dose: 31.25 mg/kg/injection, schedule: Q01DX001 (ip), vehicle: DMSO, evaluated on day 45): 130 % of control
T/C (T/C endpoint: mean survival time, dose: 31.25 mg/kg/injection, schedule: Q01DX001 (ip), vehicle: DMSO, evaluated on day 60): 118 % of control
T/C (T/C endpoint: mean survival time, dose: 31.25 mg/kg/injection, schedule: Q01DX001 (ip), vehicle: DMSO, evaluation day not shown): 125 % of control [survivor count not shown]
T/C (T/C endpoint: mean survival time, dose: 31.25 mg/kg/injection, schedule: Q01DX001 (ip), vehicle: water): 129 % of control
T/C [5]: 128 [survivor count not shown] and 136 % of control [survivor count not shown]
T/C (T/C endpoint: mean survival time, dose: 50.0 mg/kg/injection, schedule: Q01DX001 (ip), vehicle: other): 117 % of control [survivor count not shown]
T/C (T/C endpoint: mean survival time, dose: 50.0 mg/kg/injection, schedule: Q01DX001 (ip), vehicle: saline): 134 % of control [survivor count not shown]
T/C (T/C endpoint: mean survival time, dose: 50.0 mg/kg/injection, schedule: Q01DX001 (ip), vehicle: water): 132 % of control [survivor count not shown]
T/C [1]: 119 % of control
T/C (T/C endpoint: mean survival time, dose: 62.5 mg/kg/injection, schedule: Q01DX001 (ip), vehicle: water): 121 % of control
T/C [6]: 124 % of control [survivor count not shown]
T/C (T/C endpoint: mean survival time, dose: 100.0 mg/kg/injection, schedule: Q01DX001 (ip), vehicle: other): 128 % of control [survivor count not shown]
T/C (T/C endpoint: mean survival time, dose: 100.0 mg/kg/injection, schedule: Q01DX001 (ip), vehicle: water): 135 % of control [survivor count not shown]
survivor count [2]: 4 of 6
T/C (T/C endpoint: mean survival time, dose: 250.0 mg/kg/injection, schedule: Q01DX001 (ip), vehicle: water): 108 % of control [5 of 6 alive]
T/C (T/C endpoint: mean survival time, dose: 400.0 mg/kg/injection, schedule: Q01DX001 (ip), vehicle: DMSO): 130 % of control [survivor count not shown]
T/C (T/C endpoint: mean survival time, dose: 400.0 mg/kg/injection, schedule: Q01DX001 (ip), vehicle: other): 87 % of control [survivor count not shown]
survivor count [3]: 0 of 6, 2 of 6, 5 of 6 (2×)
survivor count (T/C endpoint: mean survival time, dose: 500.0 mg/kg/injection, schedule: Q01DX001 (ip), vehicle: water): 0 of 6 and 3 of 6 (2×)
T/C (T/C endpoint: median survival time, dose: 25.0 mg/kg/injection, schedule: Q01DX001 (ip), vehicle: water): 124 % of control
T/C (T/C endpoint: median survival time, dose: 50.0 mg/kg/injection, schedule: Q01DX001 (ip), vehicle: water): 106 and 123 % of control
T/C (T/C endpoint: median survival time, dose: 100.0 mg/kg/injection, schedule: Q01DX001 (ip), vehicle: water): 118 and 128 % of control
T/C (T/C endpoint: median survival time, dose: 200.0 mg/kg/injection, schedule: Q01DX001 (ip), vehicle: water): 126 % of control
survivor count (T/C endpoint: median survival time, dose: 800.0 mg/kg/injection, schedule: Q01DX001 (ip), vehicle: water): 6 of 6
